Reference: PubChem BioAssay AID1224828 (NIAID, 2016)
Aim: 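Regulators linking TLR4 signalling to p65 nuclear translocation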 (primary screen). System: mouse RAW264.7 G9 macrophage reporter cells (GFP-p65, Tnf promoter-mCherry). Reagents: siRNA pool against mouse genes, 100 nM. Time to read-out: 2 days siRNA transfection, then 40 min LPS before fixation. Treatment: LPS (Salmonella minnesota R595) at 10 ng/ml. Detection: 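Microscopy ratio of nuclear to perinuclear-ring GFP-p65 signal, scaled to the plate median; gene score is the average of two replicate robust z-scores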. Reading the numbers: p65 translocation robust z-score: higher = more nuclear NF-kappaB p65 after LPS than the plate median; nuclear/cytoplasmic p65 ratio: higher = more nuclear NF-kappaB p65. Active means: 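Called active when z exceeds 3.3 or falls under -1.56 (median of Tlr4 controls), giving activity score of at least 50; no calls for control wells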. Meaning of the calls: active = hit (p65 shift raised or lowered); inactive = no clear change.
This is an unselected part of about 17,000 reagents. 762 of all reagents (4.5%) were called active. 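Active calls include both raised and lowered p65 entry, mostly lowered; wells with fewer than 50 cells lack a z-score.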 Raw values vary from plate to plate and are shown uncorrected. The numbers tell different reagents against one gene apart. A reagent listed more than once was tested more than once; the source does not tell the runs apart. No sequences are given here.

Gene,reagent,p65 translocation robust z-score,"nuclear/cytoplasmic p65 ratio, rep 1","nuclear/cytoplasmic p65 ratio, rep 2",low cell count flag,Outcome
Tmem9b,1,,1.26,1.37,fewer than 50 cells per well; well left out of scoring,inactive
Or6a2,1,2.21,1.83,1.65,enough cells to score,inactive
Lrrc10,1,-2.19,1.39,1.21,enough cells to score,active
Agr3,1,-1.35,1.33,1.15,enough cells to score,inactive
Col17a1,1,-0.14,1.33,1.36,enough cells to score,inactive
Lsg1,1,1.5,1.74,1.81,enough cells to score,inactive
Bdh1,1,0.66,1.76,1.67,enough cells to score,inactive
Mtmr3,1,-2.15,1.19,1.08,enough cells to score,active
Id4,1,0.38,1.54,1.38,enough cells to score,inactive
Il21r,1,-0.61,1.39,1.31,enough cells to score,inactive
Galnt11,1,-0.62,1.56,1.33,enough cells to score,inactive
Dhx36,1,1.96,1.92,1.77,enough cells to score,inactive
Rhpn1,1,,1.26,1.22,fewer than 50 cells per well; well left out of scoring,inactive
Or14j9,1,0.63,1.34,1.27,enough cells to score,inactive
Mmp13,1,0.23,1.5,1.35,enough cells to score,inactive
Asxl2,1,,1.24,1.15,fewer than 50 cells per well; well left out of scoring,inactive
Gpc4,1,-0.62,1.55,1.47,enough cells to score,inactive
Ppp2r3a,1,-0.36,1.55,1.56,enough cells to score,inactive
Dennd1a,1,0.7,1.44,1.57,enough cells to score,inactive
Paqr3,1,0.22,1.67,1.62,enough cells to score,inactive
Dnajc2,1,1.49,1.74,1.49,enough cells to score,inactive
Dnajc2,2,-0.16,1.25,1.23,enough cells to score,inactive
Commd4,1,-0.32,1.51,1.75,enough cells to score,inactive
Skint4,1,-0.98,1.3,1.4,enough cells to score,inactive
Tpra1,1,0.14,1.44,1.61,enough cells to score,inactive
Mef2a,1,-0.12,1.52,1.24,enough cells to score,inactive
Crispld1,1,-0.3,1.46,1.83,enough cells to score,inactive
Gchfr,1,,2.21,1.23,fewer than 50 cells per well; well left out of scoring,inactive
Slc49a4,1,0.23,1.48,1.43,enough cells to score,inactive
Strada,1,-0.02,1.65,1.41,enough cells to score,inactive
Strada,1,-0.76,1.29,1.36,enough cells to score,inactive
Ar,1,-0.2,1.6,1.58,enough cells to score,inactive
Sardh,1,-0.54,1.46,1.42,enough cells to score,inactive
Mob2,1,,1.05,1.16,fewer than 50 cells per well; well left out of scoring,inactive
Phlda2,1,-0.45,1.43,1.35,enough cells to score,inactive
Trpc2,1,-0.56,1.32,1.13,enough cells to score,inactive
Rnpep,1,0.46,1.53,1.63,enough cells to score,inactive
Psmd11,1,,1.3,0,fewer than 50 cells per well; well left out of scoring,inactive
Tm7sf2,1,0.24,1.58,1.53,enough cells to score,inactive

Continued; the last 8 above are carried over.
Gene,reagent,p65 translocation robust z-score,"nuclear/cytoplasmic p65 ratio, rep 1","nuclear/cytoplasmic p65 ratio, rep 2",low cell count flag,Outcome
Ar,1,-0.2,1.6,1.58,enough cells to score,inactive
Sardh,1,-0.54,1.46,1.42,enough cells to score,inactive
Mob2,1,,1.05,1.16,fewer than 50 cells per well; well left out of scoring,inactive
Phlda2,1,-0.45,1.43,1.35,enough cells to score,inactive
Trpc2,1,-0.56,1.32,1.13,enough cells to score,inactive
Rnpep,1,0.46,1.53,1.63,enough cells to score,inactive
Psmd11,1,,1.3,0,fewer than 50 cells per well; well left out of scoring,inactive
Tm7sf2,1,0.24,1.58,1.53,enough cells to score,inactive
Dnajc12,1,4.39,2.22,1.78,enough cells to score,active
Zfp956,1,-1.08,1.38,1.58,enough cells to score,inactive
4932425I24RIK,1,,1.31,1.24,fewer than 50 cells per well; well left out of scoring,inactive
Lsm10,1,-1.55,1.48,1.34,enough cells to score,inactive
Tars3,1,-0.81,1.32,1.37,enough cells to score,inactive
Apc,1,-0.68,1.52,1.52,enough cells to score,inactive
Actl9,1,,1.47,1.28,fewer than 50 cells per well; well left out of scoring,inactive
Elmod1,1,0.11,1.32,1.25,enough cells to score,inactive
Idua,1,0.38,1.45,1.46,enough cells to score,inactive
Mdk,1,0.37,1.41,1.39,enough cells to score,inactive
Zbtb11,1,-0.53,1.41,1.41,enough cells to score,inactive
Tjp1,1,0.69,1.53,1.7,enough cells to score,inactive
Lyrm1,1,,1.25,1.21,fewer than 50 cells per well; well left out of scoring,inactive
Mcm2,1,-0.27,1.4,1.31,enough cells to score,inactive
Mmp23,1,-0.24,1.44,1.29,enough cells to score,inactive
Dgkq,1,-1.78,1.41,1.15,enough cells to score,active
Cngb1,1,0,1.45,1.99,enough cells to score,inactive
Cngb1,2,-1.24,1.24,1.24,enough cells to score,inactive
Eif3d,1,-1.17,1.33,1.2,enough cells to score,inactive
Gkap1,1,0.34,1.39,1.5,enough cells to score,inactive
Kcnmb1,1,2.69,1.54,1.79,enough cells to score,inactive
Or9s15,1,-0.28,1.65,1.31,enough cells to score,inactive
A930006J02Rik (retired record),1,-0.06,1.42,1.46,enough cells to score,inactive
Gpc1,1,,1.09,1.34,fewer than 50 cells per well; well left out of scoring,inactive
Ankrd40,1,,1.2,1.24,fewer than 50 cells per well; well left out of scoring,inactive
Pirt,1,,1.39,1.16,fewer than 50 cells per well; well left out of scoring,inactive
Pbx1,1,-0.12,1.43,1.4,enough cells to score,inactive
Stk3,1,-1.43,1.46,1.44,enough cells to score,inactive
Vstm2l,1,1.02,1.73,1.75,enough cells to score,inactive
Xtbd1,1,-1.48,1.25,1.66,enough cells to score,inactive
Dbt,1,-0.72,1.47,1.27,enough cells to score,inactive
Dcps,1,0.74,1.61,1.4,enough cells to score,inactive
Nthl1,1,-0.59,1.39,1.31,enough cells to score,inactive
Ipp,1,-0.03,1.66,1.32,enough cells to score,inactive
Vill,1,-0.5,1.34,1.16,enough cells to score,inactive
Impa1,1,-0.04,1.48,1.37,enough cells to score,inactive
